Measured values reported in article PMC4793267.
These are yes or no findings as the source states them, for the method shown. Binding seen in cells or lysates may run through a third protein. Binding can be weak; no strength is given. Tags and fused reporters may be left off the sequences shown.

By UniProt entry, the sequences of proteins in these tests, tags left out. Where a name states a change or a piece, a line headed by the entry shows the natural chain unless it says otherwise. Chains listed by the source or under a name are the forms on record and can include a tag or linker.
UniProt O18381: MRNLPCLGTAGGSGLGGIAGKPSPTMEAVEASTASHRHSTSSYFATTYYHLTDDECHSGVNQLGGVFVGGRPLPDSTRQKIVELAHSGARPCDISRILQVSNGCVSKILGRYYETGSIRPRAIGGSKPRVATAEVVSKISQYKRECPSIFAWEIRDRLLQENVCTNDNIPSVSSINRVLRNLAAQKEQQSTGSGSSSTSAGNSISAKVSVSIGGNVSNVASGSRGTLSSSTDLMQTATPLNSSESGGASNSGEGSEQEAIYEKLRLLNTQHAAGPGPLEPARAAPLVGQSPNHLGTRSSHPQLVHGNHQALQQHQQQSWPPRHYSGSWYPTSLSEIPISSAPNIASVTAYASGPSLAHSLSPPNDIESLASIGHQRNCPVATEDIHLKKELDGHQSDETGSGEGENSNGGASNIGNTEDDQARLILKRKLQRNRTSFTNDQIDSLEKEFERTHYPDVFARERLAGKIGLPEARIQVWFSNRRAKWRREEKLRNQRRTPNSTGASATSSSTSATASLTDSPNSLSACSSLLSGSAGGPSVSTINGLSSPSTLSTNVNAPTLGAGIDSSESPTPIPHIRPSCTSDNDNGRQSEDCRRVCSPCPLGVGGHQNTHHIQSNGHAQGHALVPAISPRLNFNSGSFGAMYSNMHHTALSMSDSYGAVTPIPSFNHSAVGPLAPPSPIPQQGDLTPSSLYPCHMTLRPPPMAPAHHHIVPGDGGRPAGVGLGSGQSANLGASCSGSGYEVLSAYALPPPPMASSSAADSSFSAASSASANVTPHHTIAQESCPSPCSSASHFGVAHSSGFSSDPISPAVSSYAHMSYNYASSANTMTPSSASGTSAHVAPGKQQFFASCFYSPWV
HA-tagged Eyeless (Ey) (O18381, form named): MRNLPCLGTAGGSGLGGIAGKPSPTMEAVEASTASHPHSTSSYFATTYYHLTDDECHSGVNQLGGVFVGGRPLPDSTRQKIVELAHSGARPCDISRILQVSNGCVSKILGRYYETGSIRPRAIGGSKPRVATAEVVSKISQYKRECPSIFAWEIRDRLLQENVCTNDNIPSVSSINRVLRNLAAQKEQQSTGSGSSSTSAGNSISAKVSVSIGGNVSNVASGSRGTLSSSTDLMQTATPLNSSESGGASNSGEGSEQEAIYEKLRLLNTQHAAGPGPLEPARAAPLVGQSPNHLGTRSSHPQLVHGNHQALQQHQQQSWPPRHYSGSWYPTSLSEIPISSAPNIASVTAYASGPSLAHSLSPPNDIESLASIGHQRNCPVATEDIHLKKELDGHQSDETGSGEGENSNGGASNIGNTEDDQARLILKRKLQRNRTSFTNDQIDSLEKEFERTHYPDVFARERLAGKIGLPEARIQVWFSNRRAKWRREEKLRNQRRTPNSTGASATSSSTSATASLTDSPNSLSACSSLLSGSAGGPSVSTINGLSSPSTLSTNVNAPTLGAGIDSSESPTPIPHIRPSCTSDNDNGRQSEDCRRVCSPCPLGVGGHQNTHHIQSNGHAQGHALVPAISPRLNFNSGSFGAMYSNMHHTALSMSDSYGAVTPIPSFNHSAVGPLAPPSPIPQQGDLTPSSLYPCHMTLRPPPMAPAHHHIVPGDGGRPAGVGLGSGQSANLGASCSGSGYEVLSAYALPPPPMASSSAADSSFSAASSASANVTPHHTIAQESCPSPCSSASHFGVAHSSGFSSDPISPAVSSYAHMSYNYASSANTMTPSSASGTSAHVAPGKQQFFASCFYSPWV

T1: Flag-tagged Eyes absent (Eya), wild type (Drosophila) (UniProt Q05201)
T1 sequence: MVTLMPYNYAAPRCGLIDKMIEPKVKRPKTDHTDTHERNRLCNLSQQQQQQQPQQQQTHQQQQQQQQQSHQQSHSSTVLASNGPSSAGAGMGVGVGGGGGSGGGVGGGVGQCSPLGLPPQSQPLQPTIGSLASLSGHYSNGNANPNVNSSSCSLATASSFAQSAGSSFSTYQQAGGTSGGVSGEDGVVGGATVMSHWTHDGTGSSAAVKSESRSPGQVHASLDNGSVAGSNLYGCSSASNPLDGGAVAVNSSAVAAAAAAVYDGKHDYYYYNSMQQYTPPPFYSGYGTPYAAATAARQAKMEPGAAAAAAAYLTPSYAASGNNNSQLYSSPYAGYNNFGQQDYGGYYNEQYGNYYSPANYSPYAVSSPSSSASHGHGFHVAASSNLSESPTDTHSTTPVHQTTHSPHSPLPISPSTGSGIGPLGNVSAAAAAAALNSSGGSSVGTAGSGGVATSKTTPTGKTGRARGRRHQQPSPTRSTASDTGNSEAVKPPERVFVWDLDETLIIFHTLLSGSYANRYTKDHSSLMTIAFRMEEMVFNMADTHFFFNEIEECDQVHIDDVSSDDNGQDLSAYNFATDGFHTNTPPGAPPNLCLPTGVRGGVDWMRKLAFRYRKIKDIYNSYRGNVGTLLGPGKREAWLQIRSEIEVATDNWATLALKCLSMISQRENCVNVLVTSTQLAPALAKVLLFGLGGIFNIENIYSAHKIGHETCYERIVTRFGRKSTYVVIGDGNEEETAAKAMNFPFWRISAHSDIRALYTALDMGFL


Assays:
Test in all cases: co-IP; Flag-Eya (wild type or mutant) co-expressed with HA-Ey, Myc-So or HA-Dac in S2 cells; lysis in Pierce IP lysis buffer; IP with anti-Flag agarose beads 2 h at 4 °C; western blot with anti-HA, anti-Myc, anti-Flag
[1] = target: T1, Flag-tagged Eyes absent (Eya), wild type (Drosophila)
[2] = target: Flag-tagged Eya^Y4 (threonine phosphatase-dead Eya, four tyrosines to alanine) (Drosophila) (UniProt Q05201)
[3] = target: Flag-tagged Eya^ΔPST/TPM (Eya with the PST/TPM domain deleted) (Drosophila) (UniProt Q05201)
[4] = target: Flag-tagged Eya^ΔTPM (Eya with the threonine phosphatase motif deleted) (Drosophila) (UniProt Q05201)

binding [1] | binding [2] | binding [3] | binding [4] | Molecule
binds | – | – | – | HA-tagged Dachshund (Dac) (Drosophila)
– | binds | binds | binds | HA-tagged Eyeless (Ey) (from UniProt O18381 1-857)
– | binds | binds | binds | Myc-tagged Sine oculis (So) (protein, UniProt Q27350 1-416) MLQHPATDFYDLAAANAAAVLTARHTPPYSPTGLSGSVALHNNNNNNSSTSNNNNSTLDIMAHNGGGAGGGLHLNSSSNGGGGGGVVSGGGSGGRENLPSFGFTQEQVACVCEVLQQAGNIERLGRFLWSLPQCDKLQLNESVLKAKAVVAFHRGQYKELYRLLEHHHFSAQNHAKLQALWLKAHYVEAEKLRGRPLGAVGKYRVRRKFPLPRTIWDGEETSYCFKEKSRSVLRDWYSHNPYPSPREKRDLAEATGLTTTQVSNWFKNRRQRDRAAEHKDGSTDKQHLDSSSDSEMEGSMLPSQSAQHQQQQQQQQHSPGNSSGNNNGLHQQQLQHVAAEQGLQHHPHQPHPASNIANVAATKSSGGGGGGGVSAAAAAQMQMPPLTAAVAYSHLHSVMGAMPMTAMYDMGEYQHL
